Laboratory results taken from US7109296B2, “Human 5-HT3-C protein” (Ortho-McNeil Pharmaceutical, Inc., priority 1999, dated 2006).
At least one structure is not confirmed: it was looked up by name or label, or the drawing left a doubt.

What was measured:
Assay type in all cases: cell-based
5-HT3-B and 5-HT3-C = molecular target: T1, 5-HT3-B and 5-HT3-C (Homo sapiens, UniProt O95264+Q8WXA8); test: Two-electrode voltage clamp, oocytes co-injected with 5-HT3-B and 5-HT3-C; details: 1 μM; 5-HT3-B 3.3 ng, 5-HT3-C 3.35 ng/oocyte
T1 construct: Characterization of the Function of Protein Encoded by p5HT3CR in Xenopus oocvtes; expressed in transfected cells; host or cells: Xenopus laevis oocytes co-injected with cRNAs
T1 sequence (O95264 22-441): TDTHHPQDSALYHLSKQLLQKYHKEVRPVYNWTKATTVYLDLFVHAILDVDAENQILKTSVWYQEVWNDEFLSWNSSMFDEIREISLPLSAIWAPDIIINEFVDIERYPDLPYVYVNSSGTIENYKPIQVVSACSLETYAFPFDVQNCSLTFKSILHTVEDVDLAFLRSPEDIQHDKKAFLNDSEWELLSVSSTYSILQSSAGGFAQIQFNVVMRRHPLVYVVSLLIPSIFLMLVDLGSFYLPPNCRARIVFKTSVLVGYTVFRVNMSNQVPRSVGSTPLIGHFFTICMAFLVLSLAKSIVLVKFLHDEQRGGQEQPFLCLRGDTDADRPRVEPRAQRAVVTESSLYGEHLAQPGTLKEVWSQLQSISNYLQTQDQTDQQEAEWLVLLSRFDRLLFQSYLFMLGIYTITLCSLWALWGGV
T1 sequence (Q8WXA8 28-447): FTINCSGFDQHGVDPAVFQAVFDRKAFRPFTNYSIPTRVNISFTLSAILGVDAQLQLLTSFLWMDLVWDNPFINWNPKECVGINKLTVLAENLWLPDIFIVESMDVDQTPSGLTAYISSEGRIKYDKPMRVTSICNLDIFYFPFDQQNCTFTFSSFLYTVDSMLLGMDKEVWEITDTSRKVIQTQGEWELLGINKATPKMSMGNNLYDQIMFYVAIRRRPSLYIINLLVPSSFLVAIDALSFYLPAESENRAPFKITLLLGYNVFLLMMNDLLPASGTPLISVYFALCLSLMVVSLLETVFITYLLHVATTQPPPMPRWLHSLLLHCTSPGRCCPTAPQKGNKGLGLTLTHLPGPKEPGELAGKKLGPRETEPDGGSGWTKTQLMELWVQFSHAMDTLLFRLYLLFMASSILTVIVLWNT
Method: (§1) Characterization of the Function of Protein Encoded by p5HT3CR in Xenopus oocvtes Xenopus laevis oocytes were prepared and injected using standard methods previously described and known in the art (Fraser et al., 1993). Ovarian lobes from adult female Xenopus laevis (Nasco, Fort Atkinson, Wis.) were teased apart, rinsed several times in nominally Ca-free saline containing (in mM): NaCl 82.5, KCl 2.5, MgCl2 1, HEPES 5, adjusted to pH 7.0 with NaOH(OR-2), and gently shaken in OR-2 containing 0.2% collagenase Type 1 (ICN Biomedicals, Aurora, Ohio) for 2–5 hours. When approximately 50% of the follicular layers were removed, Stage V and VI oocytes were selected and rinsed in media consisting of 75% OR-2 and 25% ND-96. The ND-96 contained (in mM): NaCl 100, KCl 2, MgCl2 1, CaCl2 1.8, HEPES 5, Na pyruvate 2.5, gentamicin (50 ug/ml), adjusted to pH 7.0 with NaOH. […] Whole cell agonist-induced currents were measured 1–14 days after injection with a conventional two-electrode voltage clamp (GeneClamp500, Axon Instruments, Foster City, Calif.) using standard methods previously described and known in the art (Dascal, 1987). […]

[1] = molecular target: T2, 5-HT3-C together with nicotinic ACh receptor subunits β1, β2 and β3 (Homo sapiens, UniProt Q8WXA8); test: Two-electrode voltage clamp, oocytes injected with 5-HT3-C together with nicotinic ACh receptor subunits β1, β2 and β3; details: >100 μM; 5-HT3-C with β1, β2 and β3 (0.2–0.25 ng); n=5;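 also: oocytes expressing the subunits for 2–14 days, voltage-clamped at −70 mV under continuous ND96 perfusion at room temperature, with water-injected oocytes serving as controls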
T2 construct: Characterization of the Function of Protein Encoded by p5HT3CR in Xenopus oocvtes; expressed in transfected cells; host or cells: Xenopus laevis oocytes injected with cRNA
T2 sequence (Q8WXA8 28-447): T1 sequence (Q8WXA8 28-447)

human 5-HT3-C = molecular target: T3, human 5-HT3-C (Homo sapiens, UniProt Q8WXA8); test: Two-electrode voltage clamp, Xenopus oocytes injected with 5-HT3-C cRNA alone; details: >100 μM; only 5-HT3-C cRNA (33.5 ng); n=5
T3 construct: Characterization of the Function of Protein Encoded by p5HT3CR in Xenopus oocvtes; expressed in transfected cells; host or cells: Xenopus laevis oocytes injected with in vitro transcribed cRNA (pGEM HE)
T3 sequence (Q8WXA8 28-447): T1 sequence (Q8WXA8 28-447)
Method: as §1

SMILES	responsiveness of oocytes to agonist (5-HT3-B and 5-HT3-C)	sensitivity of oocytes to neuroactive compound [1]	sensitivity of oocytes to neuroactive compound (human 5-HT3-C)
CSCCC(NC(=O)C(Cc1c[nH]c2ccccc12)NC(=O)CNC(=O)C(Cc1ccc(O)cc1)NC(=O)C(C)NC(=O)C(CCC(=O)O)NC(=O)C(CCC(=O)O)NC(=O)C(CCC(=O)O)NC(=O)[C@H](CCC(=O)O)NC(=O)[C@H](CCC(=O)O)NC(=O)[C@H](CC(C)C)NC(=O)[C@H](Cc1c[nH]c2ccccc12)NC(=O)[C@@H]1CCCN1C(=O)CNC(=O)[C@@H](N)CCC(=O)O)C(=O)NC(CC(=O)O)C(=O)NC(Cc1ccccc1)C(N)=O (stereo in doubt) [gastrin]	unresponsive		
O=C(O)CCCO [gamma hydroxybutyrate]		insensitive	insensitive
